Source: ChEMBL document CHEMBL3988442, “University of Dundee, Small-Polar-MMV Screening Library” (2021).

A: 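Whole-cell assay for inhibitors of Mycobacterium tuberculosis growth, labelled Cornell in the record; the read-out is not stated. The concentration is filed as 10 mM, unlikely as a test dose, so the dose is not known. Higher means stronger inhibition (inferred from two other growth screens of the library). Size under these conditions: about 53,000 compounds, about 900 of them at 50% or above in at least one test.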
B: 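Assay on Mycobacterium tuberculosis, filed only as a heat shock assay from Cornell; the read-out is not stated. The concentration is filed as 10 mM, unlikely as a test dose, so the dose is not known. Higher reads as stronger inhibition (inferred: compounds with an IC50 in retests scored well above the rest). About 69,000 compounds were tested under these conditions; 1.4% (about 930) showed 50% or more at least once.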

The filed quantity is “Percent Effect” (%). How 0% and 100% were set is not recorded. Most values in the screen are low, and negative values occur. Compounds were drawn at random from those tested, without regard to their results. A dash means the value is not listed here; it may have been measured.

SMILES,A,B
[H][C@]12CC[C@]([H])(CN(CC(=O)N(C)C)C1)N(Cc1cc(F)ccc1F)C2,9.431%,-23.59%
CCCNC(=O)CN1CCOC(CC)C1 (configuration not stated),-1.383%,-3.943%
CCC(C)(N)c1nc(C(C)C)cc(=O)[nH]1.Cl (configuration not stated),20.74%,7.893%
[H][C@@]12CCN(C(=O)Cc3cccs3)C[C@]1([H])OCCNC2=O,-55.97%,6.389%
O=C(NC1CC1)c1nc(COc2ccc3c(c2)OCO3)no1,14.08%,12.66%
COc1cc(CN(C)Cc2ccncc2)c(SC)cc1OC,-,-19.31%
COc1cccc(-c2cc(NCCO)nc3[nH]ccc23)n1,-17.77%,-2.465%
Cc1ncccc1C(=O)N1CCC2(CCc3ccccc3C(=O)N2)C1 (configuration not stated),-27.45%,-21.26%
O=C(C1CSc2ccccc2O1)N1CCN(CCO)CC1 (configuration not stated),20.87%,-26.35%
COc1cccc(NC(=O)N2CCC(O)(C(F)(F)F)C2)c1 (configuration not stated),1.67%,-16.82%
Cc1nccn1C1CCCN(C(=O)c2ccc3c(c2)NC(=O)CO3)C1 (configuration not stated),7.108%,6.576%
COc1ccc(-c2cc3nn(CC(=O)NC(C)C)c(=O)n3c(C)n2)cc1,-2.498%,21.42%
CC(C)c1ncc(CN2C[C@@H](CN3CCC(O)CC3)[C@@H](CO)C2)cn1,-,-13.14%
[H][C@@]12OCCN(C(=O)c3ccc(OC)c(F)c3)[C@@]1([H])CC[C@@H]2OCC1CC1,9.641%,-22.34%
CCN(Cc1ccc(F)cc1Cl)C1CCS(=O)(=O)C1 (configuration not stated),13.95%,2.052%
[H][C@@]12CS(=O)(=O)C[C@]1([H])N(Cc1ncc[nH]1)CCN2CC=C(C)C,-29.32%,4.228%
COCCN(Cc1ccccn1)C(=O)CC1OCCc2ccsc21 (configuration not stated),-10.22%,9.039%
CN(CCCNS(=O)(=O)N1CCC2(CC1)OCCO2)c1ccccc1,8.161%,8.079%
CCn1ncc2c1C(COCC1CC1)CN(C(=O)c1cccs1)C2 (configuration not stated),-3.316%,-4.398%
CC(CNC(=O)c1nc(N2CCOCC2)ncc1Cl)c1ccccc1 (configuration not stated),-8.759%,26.49%
CCCS(=O)(=O)N1CCN(c2cc(-n3cnc(C)c3C)nc(C)n2)CC1,-2.142%,-15.14%
Cc1cccc(C2(C(=O)NCC(C)CN3CCCC3=O)CC2)c1 (configuration not stated),-,8.709%
COc1ccc(CN(C)CC2(O)CCNC2)cc1 (configuration not stated),6.861%,-11.62%
Nc1ncc(CN2CCC(CCC(=O)NC3CC3)CC2)cn1,16.22%,-44.62%
CCN(CCn1cccn1)Cc1nc(-c2cccs2)oc1C,15.65%,4.15%
Cc1noc(C)c1CN1CCOCC12CCN(c1cnccn1)CC2.O=C(O)C(F)(F)F,4.011%,47.72%
CSc1ccc(-c2nc(CN3CCC(NC(C)=O)CC3)c(C)o2)cc1,2.797%,14.38%
O=C(NCc1cccc2cccnc12)N1CCC(n2cncn2)CC1,-,8.081%
Cc1cnc(NC(=O)c2cccc(CN(C)Cc3ncccc3C)c2)s1,14.64%,62.95%
CC(OCC1CC1)C(=O)NCCC(=O)Nc1ccccn1 (configuration not stated),-34.51%,-20.26%
CC(C)NC(=O)N1CCC2(CC1)NC(=O)CC2c1ccncc1.O=C(O)C(F)(F)F (configuration not stated),3.345%,-15.66%
Cn1cc(-c2cc(C(F)(F)F)n(CCCN)n2)cn1,-36.45%,-30.96%
CN(C)C(=O)CN1CCC(c2cccc(Cc3ccc(F)cc3)n2)CC1,-26.1%,-5.094%
[H][C@@]12CCN(C[C@@H]1CC)[C@@H](CNCc1ccc(OC)cc1)C2,-,-7.267%
COc1ccc(OCc2nccc(-c3cc(C(=O)O)ccn3)n2)cc1,17.46%,13.05%
CN(C)Cc1ccc(C2CCCCN2C(=O)c2cc(=O)[nH]c(=O)[nH]2)cc1 (configuration not stated),-,3.177%
CC(C)N1CCC(N2CCCC(C(=O)NCC3(C)COC3)C2)CC1 (configuration not stated),-,-11.78%
[H][C@@]12CO[C@@H](CNC(=O)c3ccco3)[C@]1([H])CCN(c1cccc(C)n1)C2,-0.3827%,-0.6702%
Cn1cc(C(=O)N2CCCC2c2ccc3c(c2)OCCO3)ccc1=O (configuration not stated),-,0.9541%
OC[C@H]1CN(Cc2c(Cl)cncc2Cl)C[C@H]1CN1CCCC1,2.312%,-1.962%